The target of test [1] is T1, Canonical eukaryotic translation elongation factor eEF1Bδ1 (mouse (endogenous in Neuro-2a)) (UniProt P57776).
T1 sequence: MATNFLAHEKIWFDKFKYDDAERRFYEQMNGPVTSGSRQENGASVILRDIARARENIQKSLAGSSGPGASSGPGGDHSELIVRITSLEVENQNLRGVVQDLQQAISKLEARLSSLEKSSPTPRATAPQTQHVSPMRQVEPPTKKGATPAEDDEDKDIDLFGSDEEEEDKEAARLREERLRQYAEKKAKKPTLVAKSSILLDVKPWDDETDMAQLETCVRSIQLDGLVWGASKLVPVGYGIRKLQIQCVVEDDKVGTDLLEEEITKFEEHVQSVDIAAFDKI
The test is described as follows: co-IP; Neuro-2a cells lysed in NP lysis buffer (50 mM Tris-HCl pH 7.5, 120 mM NaCl, 0.5% NP-40, 1 mM EDTA); extract incubated with anti-EEF1D (eEF1Bδ) antibody overnight at 4°C, Protein A or G Sepharose; Western blot of the immunoprecipitate.

For test [2], the target named is T2, Eukaryotic translation elongation factor 1BδL (eEF1BδL) (mouse (endogenous in Neuro-2a)) (UniProt P57776).
T2 sequence: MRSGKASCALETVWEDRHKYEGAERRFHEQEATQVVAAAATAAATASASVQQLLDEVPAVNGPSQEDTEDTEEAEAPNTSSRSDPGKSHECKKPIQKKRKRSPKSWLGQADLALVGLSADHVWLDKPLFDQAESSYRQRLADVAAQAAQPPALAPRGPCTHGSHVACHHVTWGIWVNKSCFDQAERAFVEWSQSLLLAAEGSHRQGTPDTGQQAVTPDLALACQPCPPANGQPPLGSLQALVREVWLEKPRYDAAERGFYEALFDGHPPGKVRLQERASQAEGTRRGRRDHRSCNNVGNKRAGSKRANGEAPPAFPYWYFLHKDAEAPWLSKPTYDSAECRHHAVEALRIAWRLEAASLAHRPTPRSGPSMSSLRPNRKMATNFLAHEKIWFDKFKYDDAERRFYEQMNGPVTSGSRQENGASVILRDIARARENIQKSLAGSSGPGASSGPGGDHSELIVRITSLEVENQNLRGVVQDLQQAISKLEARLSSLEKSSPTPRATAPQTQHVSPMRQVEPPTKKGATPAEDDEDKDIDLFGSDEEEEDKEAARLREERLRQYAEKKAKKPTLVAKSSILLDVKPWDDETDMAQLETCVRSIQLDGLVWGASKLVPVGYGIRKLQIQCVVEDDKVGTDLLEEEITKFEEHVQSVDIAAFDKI
The test is described as above.

We go through two substances from paper PMC7841112.

These are yes or no findings as the source states them, for the method shown. In cells and extracts the contact can be indirect. Binding calls can cover weak binding; strength is not graded here.

On to “Protein phosphatase 1 (PP1) (mouse (endogenous in Neuro-2a)) (enzyme)”, for which the binding entry in test [1] and in test [2] was “binds” each time.
On to “Protein phosphatase 2A (PP2A) (mouse (endogenous in Neuro-2a)) (enzyme)”, for which the binding result in test [1] and in test [2] was “no binding” in each case.
